{
  "source": "PubChem BioAssay AID504467",
  "about": "(National Center for Advancing Translational Sciences (NCATS), 2011)",
  "note": "About 7,700 (2.3%) of roughly 330,000 compounds were called active. Inconclusive means that the source gave no clear call. Such entries were picked first, then a sample of the others. Calls follow the shape of the dose curve; as a rule, active = well fitted inhibition curve with a large enough effect; inconclusive = small, poorly fitted or top-dose-only effect, or effect the other way; inactive = flat fitted curve, though single readings scatter. Potencies of inconclusive entries are doubtful fits and often do not repeat. Potency is read from the fitted curve at half-maximal effect.",
  "data": [
    {"test": "qHTS screen for small molecules that inhibit ELG1-dependent DNA repair in human embryonic kidney (HEK293T) cells expressing luciferase-tagged ELG1; also: nearly all actives have a fitted effect of over 55% in size", "settings": "HEK293T ELG1-luciferase reporter, luminescence, 16 h, DNA damage induced by 5-fluorouridine; series mostly up to 46.1 µM", "outline": "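Cells (2,000 per well) received 5-fluorouridine plus test compound or DMSO and were incubated 16 hr at 37 °C, 5% CO2. Luciferase activity was read by luminescence 30 min after ONE-Glo addition; signal suppression marked inhibition of damage-induced ELG1 function.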", "values": [
      {"smiles": "COC(=O)Cn1c(O)c(N=NC(=O)CNC(=O)COc2cccc(C)c2)c2ccccc21", "Potency": "inactive"},
      {"smiles": "N#C/C(=C(/O)c1ccc2c(c1)OCO2)c1nc2cc(C(F)(F)F)ccc2s1", "Potency": "inactive"},
      {"smiles": "Cc1c(C)c2c(OCC(=O)NCC(=O)NCC(=O)O)cc3c(c2oc1=O)CCC(C)(C)O3", "Potency": "inactive"},
      {"smiles": "COc1ccccc1OCCn1c(C)c(C=O)c2ccccc21", "Potency": "active: 11.6 µM"},
      {"smiles": "CCN(Cc1ccccc1)C(=O)c1cccc(OC2CCN(C(=O)C3CC3)CC2)c1", "Potency": "inconclusive: 13 µM [inhibitor, partial curve]"},
      {"smiles": "CCCc1nnc(NS(=O)(=O)c2ccccc2)s1", "Potency": "inactive"},
      {"smiles": "COc1ccc(C)cc1NC(=O)CN(C)S(=O)(=O)c1ccc2c(c1)CC(C)N2C(C)=O", "note": "(configuration not stated)", "Potency": "inconclusive: 20.6 µM [inhibitor, single point]"},
      {"smiles": "CC(C)CNS(=O)(=O)c1ccc(S(=O)(=O)N2CCC3(CC2)OCCO3)cc1", "Potency": "inconclusive: 16.4 µM [inhibitor, single point]"},
      {"smiles": "Cc1ccccc1CN1CCN(C(=O)c2cccc3ccccc23)CC1", "Potency": "inactive"},
      {"smiles": "Cc1ccc(C)c(C(=O)COC(=O)c2ccc(C)c(S(=O)(=O)N3CCOCC3)c2)c1", "Potency": "inconclusive: 13 µM [inhibitor, partial curve]"},
      {"smiles": "CCc1ccc(S(=O)(=O)Nc2cc3c(cc2C)n(C)c(=O)n3C)cc1", "Potency": "inconclusive: 4.61 µM [activator, single point]"},
      {"smiles": "NC(=O)Cn1c(=O)n(CCc2ccccc2)c(=O)c2c3c(sc21)CCCC3", "Potency": "inactive"},
      {"smiles": "COc1ccccc1Nc1nc(-c2sc(NC(=O)c3ccc([N+](=O)[O-])cc3)nc2C)cs1", "Potency": "inconclusive: 3.26 µM [inhibitor, full curve]"},
      {"smiles": "O=C(COC(=O)c1cc([N+](=O)[O-])ccc1NCCO)Nc1cccnc1Cl", "Potency": "inactive"},
      {"smiles": "CCOC(=O)Cn1nc(-c2ccc(Cl)cc2)cc1N", "Potency": "inconclusive: 7.31 µM [activator, partial curve]"},
      {"smiles": "CC(=O)N1c2ccc(S(=O)(=O)N3c4ccccc4CC3C)cc2CC1C", "note": "(configuration not stated)", "Potency": "inactive"},
      {"smiles": "CCn1c2ccccc2c2nc3cc(C(=O)O)ccc3nc21", "Potency": "inconclusive: 20.6 µM [activator, partial curve]"},
      {"smiles": "O=C(Nc1ccc(C(F)(F)F)cc1)C1CCN(S(=O)(=O)c2ccc(N3CCCC3=O)cc2)CC1", "Potency": "inconclusive: 3.66 µM [inhibitor, single point]"},
      {"smiles": "Cc1c(Nc2nc3ccccc3nc2N2CCN(c3ccccc3)CC2)c(=O)n(-c2ccccc2)n1C", "Potency": "inconclusive: 25.9 µM [inhibitor, single point]"},
      {"smiles": "COCCN(C(=O)CCC(=O)Nc1ccccn1)C(C(=O)NCCC(C)C)c1ccc(F)cc1", "note": "(configuration not stated)", "Potency": "inactive"},
      {"smiles": "COc1ccc(Cl)cc1C(=O)NCC(c1ccco1)N1CCCC1", "note": "(configuration not stated)", "Potency": "inactive"},
      {"smiles": "CCCCC(=O)Nc1ccc2oc(-c3ccncc3)nc2c1", "Potency": "inactive"},
      {"smiles": "CCNS(=O)(=O)c1ccc(NC(=O)c2ccc(Cn3cc([N+](=O)[O-])cn3)o2)cc1", "Potency": "inconclusive: 13 µM [inhibitor, partial curve]"},
      {"smiles": "O=C(Nc1ccc(Oc2ccccc2)nc1)C1CCN(Cc2cccc(F)c2)CC1", "Potency": "inconclusive: 2.31 µM [inhibitor, partial curve, poor fit]"},
      {"smiles": "O=S1(=O)C=C(Sc2nc3cc(Cl)ccc3o2)c2ccccc21", "Potency": "active: 20.6 µM"},
      {"smiles": "CN(C(=O)C1CCCN1S(=O)(=O)c1ccc(Cl)cc1)c1ccccc1", "note": "(configuration not stated)", "Potency": "inactive"},
      {"smiles": "c1ccc2c(C[C@@H]3CNCCN3CCCCC3CCCCC3)cccc2c1", "Potency": "inconclusive: 18.3 µM [activator, partial curve, poor fit]"},
      {"smiles": "COc1cc(C)ccc1OCc1cc(C(=O)N(Cc2nccn2C)C(C)C)no1", "Potency": "inconclusive: 18.3 µM [activator, partial curve]"},
      {"smiles": "O=C(Nn1cnnc1)c1cc2c(s1)CCCCC2", "Potency": "inconclusive: 23.1 µM [activator, single point]"},
      {"smiles": "O=C(Nc1cccc(S(=O)(=O)N2CCCCCC2)c1)c1cc(=O)c2ccccc2o1", "Potency": "active: 11.6 µM"},
      {"smiles": "O=C(COC(=O)C1COc2ccccc2O1)Nc1ccc2c(c1)CCC2", "note": "(configuration not stated)", "Potency": "inconclusive: 1.84 µM [inhibitor, partial curve, poor fit]"},
      {"smiles": "COc1ccc(NC(=O)c2cc(-c3ccncc3)nc3ccccc23)c(OC)c1", "Potency": "inconclusive: 16.4 µM [inhibitor, partial curve]"},
      {"smiles": "CCOc1ccc(CSC(=N)N)cc1[N+](=O)[O-]", "Potency": "inconclusive: 20.6 µM [inhibitor, partial curve]"},
      {"smiles": "Cc1ccc(C2/C(=C(/O)c3cnn(-c4ccccc4)c3C)C(=O)C(=O)N2CCCN2CCOCC2)o1", "note": "(configuration not stated)", "Potency": "inconclusive: 23.1 µM [activator, partial curve]"},
      {"smiles": "CCOC(=O)C1C(=O)C=C(c2ccc(C)cc2)CC1c1cccc([N+](=O)[O-])c1", "note": "(configuration not stated)", "Potency": "inconclusive: 29.1 µM [inhibitor, single point]"},
      {"smiles": "COC(=O)CCC(=O)c1oc2ccc(OC)cc2c1N", "Potency": "inconclusive: 7.31 µM [activator, partial curve]"},
      {"smiles": "O=C(Nc1ccc2c(c1)OCCO2)c1ccccn1", "Potency": "inconclusive: 1.46 µM [activator, partial curve]"},
      {"smiles": "C=CC[C@@H](CC(=O)N[C@H](CO)Cc1ccccc1)C(=O)N[C@H](COC(=O)[C@@H](CC=C)Cc1ccc(F)cc1)C(C)(C)C", "Potency": "inconclusive: 29.1 µM [inhibitor, single point]"},
      {"smiles": "c1ccc(CSc2nc3ccccc3[nH]2)cc1", "Potency": "inconclusive: 2.59 µM [activator, full curve]"},
      {"smiles": "CCc1cccc2c(C(=O)CN3C(=O)N(C)C4(CCCCC4)C3=O)c[nH]c12", "Potency": "inconclusive: 5.17 µM [activator, full curve, poor fit]"},
      {"smiles": "COc1ccc(S(=O)(=O)N2CCN(C(=O)c3cc(-c4ccc(Br)cc4)n[nH]3)CC2)cc1OC", "Potency": "active: 23.1 µM"},
      {"smiles": "CCSC1=N/C(=C\\c2ccc(C(=O)O)cc2)C(=O)S1", "Potency": "inactive"},
      {"smiles": "Cc1cc(NC(=O)CSc2nncc(=O)n2N)no1", "Potency": "inconclusive: 0.164 µM [inhibitor, single point]"},
      {"smiles": "Cc1cccc(NS(=O)(=O)c2cccc(C(=O)N3CCN(c4ccccn4)CC3)c2)c1", "Potency": "inconclusive: 23.1 µM [inhibitor, partial curve]"},
      {"smiles": "CCCCN(C(=O)CSc1cc(C)c2ccccc2n1)c1c(N)n(Cc2ccccc2)c(=O)[nH]c1=O", "Potency": "inconclusive: 16.4 µM [inhibitor, single point]"},
      {"smiles": "O=c1cc(CN2CCN(c3ccccc3)CC2)c2c(ccc3ccccc32)o1", "Potency": "inconclusive: 32.6 µM [inhibitor, partial curve, poor fit]"},
      {"smiles": "Cc1cc(C)c2c(CN3CCN(Cc4ccccc4)CC3)cc(=O)oc2c1C", "Potency": "inconclusive: 23.1 µM [inhibitor, single point]"},
      {"smiles": "COCCCNC(=S)N1CCN(c2nc(C)nc3sc4c(c23)CCCC4)CC1", "Potency": "active: 20.6 µM"},
      {"smiles": "O=C(Nn1nnnc1Nc1ccccc1)C12CC3CC(CC(C3)C1)C2", "Potency": "inconclusive: 23.1 µM [inhibitor, single point]"},
      {"smiles": "O=C(O)c1cccc(NC(=O)c2cccc(NC(=O)C3CCCO3)c2)c1", "note": "(configuration not stated)", "Potency": "inconclusive: 16.4 µM [inhibitor, partial curve, poor fit]"},
      {"smiles": "Cc1cccc(C(=O)OCC(=O)NC23CC4CC(CC(C4)C2)C3)c1O", "Potency": "inconclusive: 14.6 µM [activator, partial curve]"},
      {"smiles": "Cc1ccc(C(=O)NC2CCN(C(=O)NC3CCCCC3)CC2)cc1", "Potency": "inconclusive: 14.6 µM [activator, partial curve, poor fit]"},
      {"smiles": "COCCN(C(=O)COC(=O)c1c(NC(C)=O)sc(C)c1C)c1c(N)n(Cc2ccccc2)c(=O)[nH]c1=O", "Potency": "inconclusive: 20.6 µM [inhibitor, single point]"},
      {"smiles": "CCOC(=O)c1sc(N=NC2=C(O)CC(C)(C)CC2=O)c(C(=O)OCC)c1C", "Potency": "inactive"},
      {"smiles": "Cc1ccc(OCC(=O)O/N=C(\\N)c2ccccn2)cc1", "Potency": "inconclusive: 14.6 µM [activator, partial curve]"},
      {"smiles": "CCN1C(=O)[C@H]2[C@@H](c3ccc(-c4ccc(Cl)c(Cl)c4)cc3)N[C@@](CC(C)C)(C(=O)OC)[C@H]2C1=O", "Potency": "inactive"},
      {"smiles": "COc1ccc2c3n([n+]([O-])c2c1)CCN=C3c1cc(Cl)c(N)c(Cl)c1", "Potency": "inactive"},
      {"smiles": "CCn1c2c(c(=N)c3ccccc31)CCC2", "Potency": "active: 20.6 µM"},
      {"smiles": "Cc1cnc(NC(=O)CCCNC(=O)c2ccc(Cl)cc2)s1", "Potency": "inconclusive: 10.3 µM [activator, partial curve]"},
      {"smiles": "CSc1ccc(NC(=O)Nc2cc(C)ccn2)cc1", "Potency": "inconclusive: 0.92 µM [activator, partial curve]"},
      {"smiles": "Cc1ccc(N=C2NC(=O)c3cccc([N+](=O)[O-])c32)cc1", "Potency": "inconclusive: 23.1 µM [activator, partial curve]"},
      {"smiles": "CCN(CC)c1ccc(NC(=O)c2[nH]c(C)c(C(C)=O)c2C)c(C)c1", "Potency": "inactive"},
      {"smiles": "Cc1c2n(c3ccccc13)CC/C2=N\\O", "Potency": "inconclusive: 3.26 µM [activator, full curve]"},
      {"smiles": "COc1ccc(NC(=O)c2ccc(C(=O)Nc3ccc(OC)cc3OC)cc2)c(OC)c1", "Potency": "inconclusive: 18.3 µM [activator, single point]"},
      {"smiles": "CCN(CC(=O)Nc1ccccc1C(F)(F)F)C(=O)c1ccccc1Sc1ccccc1C#N", "Potency": "inconclusive: 25.9 µM [inhibitor, single point]"},
      {"smiles": "CCOC(=O)c1ccc(NC(=O)CSc2nc3cccnc3n2C)cc1", "Potency": "inconclusive: 25.9 µM [inhibitor, single point]"},
      {"smiles": "CCc1ccc(S(=O)(=O)Nc2c(C)nn(C)c2C)cc1", "Potency": "inconclusive: 3.66 µM [inhibitor, full curve]"}
    ]}
  ]
}
